# Results are given in words; binding and its absence hold for the method and conditions named. Binding seen in cells or lysates may run through a third protein. These calls come from enrichment with a bait or labelling near it, and not all partners need be listed.
# Sequences of proteins named here, by UniProt entry; tags and fusion partners are left off.
# UniProt P18872: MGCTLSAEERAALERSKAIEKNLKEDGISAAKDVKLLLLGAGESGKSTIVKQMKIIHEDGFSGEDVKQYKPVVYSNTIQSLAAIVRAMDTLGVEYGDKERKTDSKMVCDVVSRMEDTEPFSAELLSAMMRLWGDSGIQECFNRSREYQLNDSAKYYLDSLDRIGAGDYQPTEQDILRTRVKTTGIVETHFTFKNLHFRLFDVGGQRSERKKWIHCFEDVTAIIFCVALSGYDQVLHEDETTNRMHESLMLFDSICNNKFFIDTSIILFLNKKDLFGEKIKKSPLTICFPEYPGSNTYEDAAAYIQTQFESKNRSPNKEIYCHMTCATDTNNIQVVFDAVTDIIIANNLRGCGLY
# UniProt A2ALS5: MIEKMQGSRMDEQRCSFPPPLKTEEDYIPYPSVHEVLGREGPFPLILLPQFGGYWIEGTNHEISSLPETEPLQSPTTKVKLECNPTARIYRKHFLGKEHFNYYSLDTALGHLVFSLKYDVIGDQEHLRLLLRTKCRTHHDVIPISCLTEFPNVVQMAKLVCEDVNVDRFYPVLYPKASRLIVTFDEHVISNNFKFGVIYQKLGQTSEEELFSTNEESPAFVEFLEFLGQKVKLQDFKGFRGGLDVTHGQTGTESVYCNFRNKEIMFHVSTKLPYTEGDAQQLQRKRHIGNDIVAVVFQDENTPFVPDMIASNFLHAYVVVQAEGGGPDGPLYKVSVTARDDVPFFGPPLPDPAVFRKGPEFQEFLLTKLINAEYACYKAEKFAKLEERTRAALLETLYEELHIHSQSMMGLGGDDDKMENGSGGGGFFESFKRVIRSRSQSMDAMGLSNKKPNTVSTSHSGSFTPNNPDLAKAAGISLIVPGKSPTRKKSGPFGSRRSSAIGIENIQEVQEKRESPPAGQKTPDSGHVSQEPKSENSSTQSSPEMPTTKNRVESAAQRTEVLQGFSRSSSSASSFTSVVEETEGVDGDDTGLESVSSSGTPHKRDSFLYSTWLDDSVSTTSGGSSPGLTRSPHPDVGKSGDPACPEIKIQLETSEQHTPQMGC
# UniProt P60766: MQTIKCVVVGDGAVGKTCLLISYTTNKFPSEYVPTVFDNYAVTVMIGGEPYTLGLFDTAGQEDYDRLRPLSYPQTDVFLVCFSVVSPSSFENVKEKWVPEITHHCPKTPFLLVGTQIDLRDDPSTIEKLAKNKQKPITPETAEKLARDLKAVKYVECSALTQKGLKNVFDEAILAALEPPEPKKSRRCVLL
# UniProt Q80TL4: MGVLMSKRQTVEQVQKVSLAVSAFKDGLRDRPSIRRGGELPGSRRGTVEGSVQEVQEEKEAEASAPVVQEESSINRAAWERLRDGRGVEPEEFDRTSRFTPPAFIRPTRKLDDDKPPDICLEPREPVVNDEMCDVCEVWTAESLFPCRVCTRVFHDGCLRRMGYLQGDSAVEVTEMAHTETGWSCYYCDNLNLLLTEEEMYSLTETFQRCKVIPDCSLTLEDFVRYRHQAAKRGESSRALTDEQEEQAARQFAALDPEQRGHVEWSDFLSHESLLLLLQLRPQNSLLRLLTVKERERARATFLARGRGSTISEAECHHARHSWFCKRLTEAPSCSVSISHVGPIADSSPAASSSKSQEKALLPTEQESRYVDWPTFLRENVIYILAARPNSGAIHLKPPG
# B1: RASA2 (Ras p21 protein activator 2) (protein, UniProt P58069 1-847)
# chain: MAAAAPAAAASPEAPAVSGSADPETGDEDSREVRVLQSLRGRIYEAKNLLPYLGPNKMRDCFCTINLDQEEVYRTQVVEKSLSPYFSEEFYFEIPRTFQYLSFYVYDKNVLQRDLRIGKVAIKKEDLCSHSGKETWFSLQPIDSNSEVQGKVHLELRLNELITENGTVCQQLVVHIKACHGLPLINGQSCDPYATVSLVGPSRNDQKKTKVKKKTSNPQFNEVFYFEVTRSSSYSRKSQFQVEEEDIEKLEIRIDLWNNENLVQDVFLGEIKVPVNVLRSDSFHQAWYLLQPRDNGNKSSKTDDLGSLLLTLCYTEDCVLPSEYYGPLKTLLLKSPDVQPVSASAAYILGEICQDQKDAVLPLVRLLLHHNKLVPFITAVAELDLKDTPDANAIFRGNSLATQCLTEMMKIVGGHYLKVTLKPVLDEICESSKSCEIDPVKLKEGDNVENNKENLYYYVDKVFNTIVGSSVSCPTVMCDIFYSLRQMAAKKFPNHPHVQYSAVSSFVFLRFFAVAILSPHAFHLRPHYPDTQTVRTLTLISKTIQIIGNWGCQSRKKSRFKKSVMCEFLKMFQEERYFTDVKKFLDEISSTETKESSGTSEPVHLKEGEMYKRAQGRTRIGKKNFKKRWFCLTSRELTYHRQQGKDAIYTIPVKNILAVEKLEEGSFNKKNMFQVIHTEKTLYIQANNCVEANEWIDVLCRVSRCNHNRLSSFHPSAYLNGNWLCCQETSESTPGCKPCTAGIPADIQIDIDEDRETERIYSIFTLSLLKLQKMEETCGSIAVYQGPQKEPGYSKFTIEDSVATFKTIQQIKSTIEKLDEPHEKYRKKRSSSAKYGSKENPIVGKIS
# B2: GRIN1 (G protein–regulated inducer of neurite outgrowth 1) (protein, UniProt Q3UNH4 1-932)
# chain: MRDCCSSPKAIPAPPRHALDQSLGMDPRHTSSSGAAEGASCSERPAGSLACPSPNCSPLPETPRAHGALTSDNSGTTLFGKPEPMSSAEATPTASEIRNPVFSGKMDGNSLKQADSTSTRKEEAGSLRNEESMLKGKAEPMIYGKGEPGTVGRVDCTASGAENSGSLGKVDMPCSSKVDIVSPGGDNAGSLRKVETISSGKMDPKTENVMHSRRERPGSTGEGDLVSLRENDMKPPDNTDSASTKKTDPEFSGKLTPGSSGKTELVSSVTVAPVTSENVNPVCSGGAGPAAVGNSETLSSVKKDPQLLGKKEAVSSGEGGSVSVRMAETVSARQPEGMFPAKTDSTSSNSTGPSGRADPVSLRNSELVSPVKPERLSSGQAERVSLVKTETLSSGKEDPRSSRRVDHTTVTGNMQTSQKGNPESSGKTDLGSSSSGDTRSLGTWGSLSAAKAEVTEGKGDPQPWKKASLPASEKTDPLASSKAGSASQGKAETVSPGEVDAMTLGKTVPTSSGKTALVSPGKVDLMTSERAEGIPELQASEKGNPVNSTRVDTGATGSTEPKSGVKVITQIPGATSPGKVETPSLQKEQPQLSEKTDPSRKVDPPTTVEPVSLGKADSASPSPRKAESQTSAKTVPQAPDKATSSLRQSDGTPYSSAQPQRDTRSIGSLPEREPSASTSQKDLAAAAAQKSPSAEAAAPPPGPRTRDNFTKAPSWDAGAPPPREDAGTQAGAQACVSVAVSPMSPQDGAGGPAFSFQAAPRAPSPAPRPPSRRDAGLQVSLGAAETRSVATGPMTPQAAAPPAVPPVFPEVRVRPGSVLAAALAPQEATEPVRDVSWDEKGMTWEVYGASMEVEVLGMAIQKHLERQIEEHGRQGAPAPAPPPAVRAGPGRAGSVRTAPAEGAAKRPPGLFRALLQSVRRPRCCSRAGPTAE
# B3: GRIN3 (protein, UniProt Q8BWS5 1-763)
# chain: MGTVPDPLRVTKASIVAASGKEESRGESQSVSPQPAQPDNNASGIGNVPAELSLQLSAAAQALMQACVSESSQQDMASPGVFSEGEPVSPKQKTPDDFLLHGSKESAAPGLNATAQKELISAPCLISVVQHTHHAIQRDAPNTSTCAVPEGSLVKSEANSNGENPEKPGCPARVTCCSSKNQEGLCDFPSPENSQGILQTPDIASPSADRPEGEGQKVINNITAVSSEPPVREGCSENKQPSATALNTTAERSENPPPSHLTSKGATCSSEARQALLPAQYPVSRFKEASTMTCQAESGAKEVSGRAWQDAEVQAVASVESRSVSTSPSILPAYLKENPAPELENGQEQLRVICHGKGSGNHLLELSNSMVDSQESRQCPSIVPQVHIQAATATPAAFKGGCKPANQPAEGLKSPLIHVTSSQNTETEEDLRLSASKEATSRQPEGTNPDFQKANAIGQISLPAGSQAEINQGLWNSGPREPEIVVKTAKDHKAESSCKPSNSGGGANKDYPPESLDPTDKKGAKDKKPASPLIVKDHAPGATSTLDAKTLLLNPKSQVKEGEGPEVSPAPSPGRKSQQNTLEELRQPKTVMSLSLPSDGTGDSSPGSGKRTPSLSVKASPRRGSRVSEFLKELSVTAAAAQVGLTPGEKKKQLGADSKLHLKQSKRVRDVVWDDQGMTWEVYGASLDPESLGVAIQNHLQRQIREHEKIVKTQSGQTRRSISSDSSSSKKLKGRQHGVLQSMLQNFRRPNCCVRPAPSSVLD
# B4: GPR158 (receptor, UniProt Q8C419 25-1200)
# chain: SLDPPGRPDSPRERTPRGKQHGQQLPRASAPDPSIPWSRSTDGTILAQKLAEEVPVDVASYLYTGDFHQLKRANCSGRYELAGLPGKSPSLASSHPSLHGALDTLTHATNFLNMMLQSNKSREQTVQDDLQWYQALVRSLLEGEPSISRAAITFSTESLSTPAPQVFLQATREESRILLQDLSSSAHHLANATLETEWFHGLRRKWRPHLHRRGSNQGPRGLGHSWRRRDGLGGDRSHVKWSPPYLECENGSYKPGWLVTLSAAFYGLQPNLVPEFRGVMKVDISLQKVDIDQCSSDGWFSGTHKCHLNNSECMPIKGLGFVLGAYQCICKAGFYHPRVFSVNNFQRRGPDHHFSGSTKDVSEETHVCLPCREGCPFCADDRPCFVQEDKYLRLAIISFQALCMLLDFVSMLVVYHFRKAKSIRASGLILLETILFGSLLLYFPVVILYFEPSTFRCILLRWARLLGFATVYGTVTLKLHRVLKVFLSRTAQRIPYMTGGRVMRMLAVIVLVVFWFLVGWTSSMCQNLERDILLVGQGQTSDHLTFNMCLIDRWDYMTAVAEFLFLLWGIYLCYAVRTVPSAFHEPRYMAVAVHNELIITAIFHTIRFVLASRLQPDWMLMLYFAHAHLTVTVTIGLLLIPKFSHSSNNPRDDIATEAYEDELDMGRSGSYLNSSINSAWSEHSLDPEDIRDELKKLYAQLEIYKRKKMITNNPHLQKKRCSKKGLGRSIMRRITEIPETVSRQCSKEDKEGTDHSAAKGTGLVRKNPTESSGNTGRPKEESLKNRVFSLKKSHSTYDHVRDQTVESSSLPMESQEEEATENSTLESLSSKKLTQKLKEDSEAESTESVPLVCKSASAHNLSSEKKPGHPRTSMLQKSLSVIASAKEKTLGLAGKTQTLVMEDRAKSQKPKDRETIRKYSNSDNVETIPNSGHMEEPRKPQKSGIMKQQRVSLPTANPDVSSGITQIKDNFDIGEVCPWEVYDLTPGPMPSEPKAQKHVSIAASEVEQNPASFLKEKSYHKSKATEGLYQANHKSIDKTEVCPWEIHSQSLLEDENRLISKTPVLPGRAREENGSQLYTTNMCAGQYEELPHKVVAPKVENENLNQMGDQEKQTSSSVDIIPGSCNSSNNSHQPLTSRAEVCPWEFEPLEQPNAERSVTLPASSALSANKIPGPQK
# B5: RGS20 (protein, UniProt Q9QZB1 1-239)
# chain: MRTANGGPRARASPSASPADPGLPEGSERTEMRMRQMCGGSETQGPAPSQQGGRGSNACCFCWCCCCTCSCLTVRNQEDQRPQRASHEIRTDIPACEESPTPTLEEVCAWAQSFDNLMVTPAGRNAFREFLRTEFSEENMLFWMACEELKREANKSTIEEKARIIYEDYISILSPKEVSLDSRVREVINRNMVDPSQHIFDDAQLQIYTLMHRDSYPRFMNSTVYKDLLTSLAEKTVEA
# B6: RASA3 (Ras p21 protein activator 3), native, mouse brain (protein, UniProt Q60790 1-834)
# chain: MAVEEEGLRVFQSVRIKIGEAKNLPSYPGPNKMRDCYCTVNLDQEEVFRTKIVEKSLCPFYGEDFYCEIPRSFRHLSFYIFDRDVFRRDSIIGKVAIQKEDLQRYHNRDTWFQLQHVDADSEVQGKVHLELRLSEVITDTGVVCHKLAARIFECQGLPIVNGQCDPYATVTLAGPFRSEAKKTKVKKKTNNPQFDEVFYFEVTRPCSYSKKSHFDFEEEDVDKLEIRVDLWNASNLKFGDEFLGELRLPLKILRHSSSYEAWYFLQPRDNGNKSLKPDDLGSLRLNVVYTEDHVFSSEYYSPLRDLLLKSADVEPVSASAAHILGEVCRDKQEAAIPLVRLLLHYGRVVPFISAIASAEVKRTQDPNTIFRGNSLTSKCIDETMKLAGMHYLHVTLKPTIEEICQSHKSCEIDPVKLKDGENLENNMESLRQYVDRIFTVITKSGVSCPTVMCDIFFSLREAAAKRFQDDLDVRYTAVSSFIFLRFFAPAILSPNLFQLTPHHTDPQTSRTLTLISKTIQTLGSLSKSKSASFKESYMATFYEFFNEQKYADAVKNFLDLISSSGRRDPKSIEQPILLKEGFMIKRAQGRKRFGMKNFKKRWFRLTNHEFTYQKSKGDQPLCNIPIENILAVERLEEESFRMKNMFQVIQPERALYIQANNCVEAKDWIDILTKVSQCNQKRLTVFHPSAYLNGHWLCCRASSDTAAGCTPCTGGLPANIQLDIDGDRETERIYSLFNLYMGKLEKMQEACGSKSVYDGPEQEEYSTFVIDDPQETYKTLKQVIAGVGTLEQEHAQYRRDKFKKTRYGSQEHPIGDKSFQNYIRQQSEISTHSI
# B7: GABAB receptor subunit GABABR2 (receptor, UniProt Q80T41 41-940)
# chain: WARGAPRPPPSSPPLSIMGLMPLTKEVAKGSIGRGVLPAVELAIEQIRNESLLRPYFLDLRLYDTECDNAKGLKAFYDAIKYGPNHLMVFGGVCPSVTSIIAESLQGWNLVQLSFAATTPVLADKKKYPYFFRTVPSDNAVNPAILKLLKHFRWRRVGTLTQDVQRFSEVRNDLTGVLYGEDIEISDTESFSNDPCTSVKKLKGNDVRIILGQFDQNMAAKVFCCAFEESMFGSKYQWIIPGWYEPAWWEQVHVEANSSRCLRRSLLAAMEGYIGVDFEPLSSKQIKTISGKTPQQYEREYNSKRSGVGPSKFHGYAYDGIWVIAKTLQRAMETLHASSRHQRIQDFNYTDHTLGRIILNAMNETNFFGVTGQVVFRNGERMGTIKFTQFQDSREVKVGEYNAVADTLEIINDTIRFQGSEPPKDKTIILEQLRKISLPLYSILSALTILGMIMASAFLFFNIKNRNQKLIKMSSPYMNNLIILGGMLSYASIFLFGLDGSFVSEKTFETLCTVRTWILTVGYTTAFGAMFAKTWRVHAIFKNVKMKKKIIKDQKLLVIVGGMLLIDLCILICWQAVDPLRRTVERYSMEPDPAGRDISIRPLLEHCENTHMTIWLGIVYAYKGLLMLFGCFLAWETRNVSIPALNDSKYIGMSVYNVGIMCIIGAAVSFLTRDQPNVQFCIVALVIIFCSTITLCLVFVPKLITLRTNPDAATQNRRFQFTQNQKKEDSKTSTSVTSVNQASTSRLEGLQSENHRLRMKITELDKDLEEVTMQLQDTPEKTTYIKQNHYQELNDILSLGNFTESTDGGKAILKNHLDQNPQLQWNTTEPSRTCKDPIEDINSPEHIQRRLSLQLPILHHAYLPSIGGVDASCVSPCVSPTASPRHRHVPPSFRVMVSGL
# Biological target: G⍺o, alpha subunit of the heterotrimeric G protein Go (native, mouse brain) (mouse (endogenous in mouse brain)) (UniProt P18872)
# Experiment: affinity purification with mass spectrometry; G⍺o immunopurified (sc-13532) from GTPγS-pretreated mouse brain lysate, three independent lysates; LC-MS/MS; enrichment against G⍺o-GDP samples and isotype-matched control antibody samples
row,binding,Molecule
1,binds,Rap1GAP (from UniProt A2ALS5 1-663)
2,binds,CDC42 (from UniProt P60766 1-191)
3,binds,G⍺ inhibitory interacting protein (GINIP) (from UniProt Q80TL4 1-400)
4,binds,B1
5,binds,B2
6,binds,B3
7,binds,B4
8,binds,B5
9,binds,B6
10,binds,B7

# — publication PMC12796736
